Test results as given in PMC7317789.
No constants are given. Whether binding was seen depends on the method and setting. For some assays here: Binding seen in cells or lysates may run through a third protein. Some entries that bind do so weakly or less than the wild type. Tags and fused reporters may be left off the sequences shown.

Key:
[1] = target: SMALL LEAF AND BUSHY1 (SLB1), Gal4 DNA-binding domain fusion in pGBKT7 (Medicago truncatula); assay: two-hybrid; Matchmaker Gold System; SLB1 in pGBKT7, MtASK1, MtASK2 and BS1 in pGADT7; yeast strain Y2H Gold; growth on SD/-Trp/-Leu/-His/-Ade (QDO), dark, 28°C, 3 d
[2] = target: SLB1 fused to the N-terminal half of YFP (SLB1-nYFP) (Medicago truncatula); assay: split reporter; BiFC with split YFP in agro-infiltrated N. benthamiana leaf epidermal cells; SLB1-nYFP with cYFP fusions; fluorescence observed 48-60 h after infiltration, confocal microscope

Row | Binder | binding [1] | binding [2]
1 | BIG SEEDS1 (BS1), Gal4 activation domain fusion in pGADT7 (protein, UniProt A0A190V5K9 1-330) MNGGSTVSFRSILDRPLNQLTEDDISQLTREDCRRFLKDKGMRRPSWNKSQAIQQVISLKALLEPTDDDIPATVGVGVSSAIHHHHHHHPPQPPPKALDPEDTALELQKSTSPVAERPTETNDANVVNNPGGCAPSGSFGQMTIFYCGKVNVYDGVSPDKARSIMQLAAACPSSFPQDNPSNKNAAVWASPCNLPIDKEVLFPTDTAILQVAQTDKMVEYPLQYREKGSTARDADVEGQASRKVSLQRYLEKRKDRGRSKGKKLTGITSSNFEMYLNLPVKLHASNGNSSRSSTDSPPQPRLPLVSSGSAENQPKVTLPIDLNDKDVQEC | binds | –
2 | BS1 fused to the C-terminal half of YFP (BS1-cYFP) (protein, UniProt A0A190V5K9 1-330) MNGGSTVSFRSILDRPLNQLTEDDISQLTREDCRRFLKDKGMRRPSWNKSQAIQQVISLKALLEPTDDDIPATVGVGVSSAIHHHHHHHPPQPPPKALDPEDTALELQKSTSPVAERPTETNDANVVNNPGGCAPSGSFGQMTIFYCGKVNVYDGVSPDKARSIMQLAAACPSSFPQDNPSNKNAAVWASPCNLPIDKEVLFPTDTAILQVAQTDKMVEYPLQYREKGSTARDADVEGQASRKVSLQRYLEKRKDRGRSKGKKLTGITSSNFEMYLNLPVKLHASNGNSSRSSTDSPPQPRLPLVSSGSAENQPKVTLPIDLNDKDVQEC | – | binds
